Measurements reported in PubChem BioAssay AID1224828 (NIAID, 2016).
The whole screen tested about 17,000 reagents; below is a random part of them. In the full data, 762 (4.5%) were called active. 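Active calls include both raised and lowered p65 entry, mostly lowered; wells with fewer than 50 cells lack a z-score.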 Raw values vary from plate to plate and are shown uncorrected. No sequences are given here.

- Purpose: 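Find genes required for NF-kappaB p65 moving into the nucleus after LPS in mouse macrophages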 (primary screen)
- Cell system: mouse RAW264.7 G9 macrophage reporter cells (GFP-p65, Tnf promoter-mCherry)
- Reagent: siRNA pool against mouse genes, 100 nM
- Timing: 2 days siRNA transfection, then 40 min LPS before fixation
- Conditions: LPS (Salmonella minnesota R595) at 10 ng/ml
- Measured: 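Imaged p65 nuclear translocation ratio, normalised to the plate median, converted to robust z-scores and averaged across two replicates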
- Reading the numbers: p65 translocation robust z-score: higher = more nuclear NF-kappaB p65 after LPS than the plate median; nuclear/cytoplasmic p65 ratio: higher = more nuclear NF-kappaB p65
- Call rule: 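Active if robust z is above 3.3 (negative regulators) or below -1.56, the Tlr4 control median (positive regulators); activity score 50 or more; control wells not called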
- Calls: active = hit (p65 shift raised or lowered); inactive = no clear change

After knock-down of F8 the results were p65 translocation robust z-score 1.16; nuclear/cytoplasmic p65 ratio, rep 1 = 1.6; nuclear/cytoplasmic p65 ratio, rep 2 = 1.54; low cell count flag enough cells to score; inactive.
For Dlx1, the values are nuclear/cytoplasmic p65 ratio, rep 1 = 1.29; nuclear/cytoplasmic p65 ratio, rep 2 = 1.09; low cell count flag fewer than 50 cells per well; well left out of scoring; inactive.
Against Msh4 the deposit lists p65 translocation robust z-score 0.34; nuclear/cytoplasmic p65 ratio, rep 1 = 1.49; nuclear/cytoplasmic p65 ratio, rep 2 = 1.38; low cell count flag enough cells to score; inactive.
Against Tbxas1 the deposit lists p65 translocation robust z-score 1.28; nuclear/cytoplasmic p65 ratio, rep 1 = 1.53; nuclear/cytoplasmic p65 ratio, rep 2 = 1.7; low cell count flag enough cells to score; inactive.
Against Fcf1, the values are nuclear/cytoplasmic p65 ratio, rep 1 = 1.67; nuclear/cytoplasmic p65 ratio, rep 2 = 1.8; low cell count flag fewer than 50 cells per well; well left out of scoring; inactive.
For Ephx2, the entry reads p65 translocation robust z-score -1.53; nuclear/cytoplasmic p65 ratio, rep 1 = 1.25; nuclear/cytoplasmic p65 ratio, rep 2 = 1.18; low cell count flag enough cells to score; inactive.
After knock-down of Uggt1 the results were p65 translocation robust z-score -1.43; nuclear/cytoplasmic p65 ratio, rep 1 = 1.37; nuclear/cytoplasmic p65 ratio, rep 2 = 1.56; low cell count flag enough cells to score; inactive.
Mmachc gave nuclear/cytoplasmic p65 ratio, rep 1 = 1.15; nuclear/cytoplasmic p65 ratio, rep 2 = 1.12; low cell count flag fewer than 50 cells per well; well left out of scoring; inactive.
With knock-down of Ftdc2 the results were p65 translocation robust z-score 0.62; nuclear/cytoplasmic p65 ratio, rep 1 = 1.55; nuclear/cytoplasmic p65 ratio, rep 2 = 1.44; low cell count flag enough cells to score; inactive.
Dab2ip showed p65 translocation robust z-score 0.18; nuclear/cytoplasmic p65 ratio, rep 1 = 1.67; nuclear/cytoplasmic p65 ratio, rep 2 = 1.5; low cell count flag enough cells to score; inactive.
Silencing of Adprh resulted in: p65 translocation robust z-score 0.21; nuclear/cytoplasmic p65 ratio, rep 1 = 1.55; nuclear/cytoplasmic p65 ratio, rep 2 = 1.74; low cell count flag enough cells to score; inactive.
After knock-down of Trim12c, the record shows p65 translocation robust z-score -1.02; nuclear/cytoplasmic p65 ratio, rep 1 = 1.46; nuclear/cytoplasmic p65 ratio, rep 2 = 1.46; low cell count flag enough cells to score; inactive.
Or8h10 scored p65 translocation robust z-score 0; nuclear/cytoplasmic p65 ratio, rep 1 = 1.74; nuclear/cytoplasmic p65 ratio, rep 2 = 1.51; low cell count flag enough cells to score; inactive.
Or8b51 gave p65 translocation robust z-score 0.37; nuclear/cytoplasmic p65 ratio, rep 1 = 1.55; nuclear/cytoplasmic p65 ratio, rep 2 = 1.24; low cell count flag enough cells to score; inactive.
